Assay results published in US9247740B2, “Isoxazoline derivatives as insecticidal compounds” (Syngenta Participations AG, priority 2011, dated 2016).
Some of these results come from one statement about several compounds together. For at least one compound, name, drawing or mass did not settle the structure.

What was measured:
Assay type in all cases: in vivo
[1] = test system: Spodoptera littoralis (Egyptian Cotton Leafworm); test: Spodoptera littoralis leaf disc spray test; settings: 200 ppm spray on cotton leaf discs; mortality, feeding behavior, growth regulation 3 days after treatment
Protocol: This Example illustrates the insecticidal and acaricidal properties of compounds of formula (I). Tests were performed as follows:

[2] = test system: Heliothis virescens (Tobacco Budworm); test: Heliothis virescens egg test on artificial diet; settings: 200 ppm (concentration in well 18 ppm), eggs 0-24 h old on artificial diet; egg mortality, larval mortality, growth regulation after 4 days
Text: (§1) This Example illustrates the insecticidal and acaricidal properties of compounds of formula (I).

[3] = test system: Plutella xylostella (Diamond Back Moth); test: Plutella xylostella larval test on artificial diet; settings: 200 ppm (concentration in well 18 ppm), L2 larvae, larval mortality and growth regulation after 6 days
Text: as §1

[4] = test system: Diabrotica balteata (Corn Root Worm); test: Diabrotica balteata larval test on artificial diet; settings: 200 ppm (concentration in well 18 ppm), L2 larvae, larval mortality and growth regulation after 5 days
Text: as §1

[5] = test system: Thrips tabaci (Onion Thrips); test: Thrips tabaci leaf disc spray test; settings: 200 ppm spray on sunflower leaf discs, mixed ages; mortality after 7 days
Text: as §1

[6] = test system: Tetranychus urticae (Two-Spotted Spider Mite); test: Tetranychus urticae leaf disc spray test; settings: 200 ppm spray on bean leaf discs, mixed ages; egg, larval and adult mortality 8 days later
Text: as §1

Cc1cc(C2=NOC(c3cccc(OC(F)(F)F)c3)(C(F)(F)F)C2)ccc1C(=O)NC1(C)CSC1 (stereo not drawn) [Compound A052]
at least 80%: control of Spodoptera littoralis [1] | control of Heliothis virescens [2] | control of Plutella xylostella [3] | control of Diabrotica balteata [4] | control of Thrips tabaci [5] | control of Tetranychus urticae [6]

Cc1cc(C2=NOC(c3ccc(OC(F)(F)F)cc3)(C(F)(F)F)C2)ccc1C(=O)NC1C[S+]([O-])C1 (stereo not drawn) [Compound A061]
at least 80%: control of Spodoptera littoralis [1] | control of Heliothis virescens [2] | control of Plutella xylostella [3] | control of Diabrotica balteata [4] | control of Thrips tabaci [5] | control of Tetranychus urticae [6]

Cc1cc(C2=NOC(c3ccc(Cl)c(F)c3)(C(F)(F)F)C2)ccc1C(=O)NC1C[S+]([O-])C1 (stereo not drawn) [Compound A022]
at least 80%: control of Spodoptera littoralis [1] | control of Heliothis virescens [2] | control of Plutella xylostella [3] | control of Diabrotica balteata [4] | control of Thrips tabaci [5] | control of Tetranychus urticae [6]

Cc1cc(C2=NOC(c3cc(Cl)nc(Cl)c3)(C(F)(F)F)C2)ccc1C(=O)NC1CS(=O)(=O)C1 (stereo not drawn) [Compound A074]
at least 80%: control of Spodoptera littoralis [1] | control of Heliothis virescens [2] | control of Plutella xylostella [3] | control of Diabrotica balteata [4] | control of Thrips tabaci [5] | control of Tetranychus urticae [6]

Cc1cc(C2=NOC(c3cc(Cl)cc(Cl)c3)(C3CC3)C2)ccc1C(=O)NC1CSC1 (stereo not drawn) [Compound A015]
at least 80%: control of Spodoptera littoralis [1] | control of Heliothis virescens [2] | control of Plutella xylostella [3] | control of Diabrotica balteata [4] | control of Thrips tabaci [5] | control of Tetranychus urticae [6]

Cc1cc(C2=NOC(c3ccc(C(F)(F)F)cc3)(C(F)(F)F)C2)ccc1C(=O)NC1CSC1 (stereo not drawn) [Compound A035]
at least 80%: control of Spodoptera littoralis [1] | control of Heliothis virescens [2] | control of Plutella xylostella [3] | control of Diabrotica balteata [4] | control of Thrips tabaci [5] | control of Tetranychus urticae [6]

Cc1cc(C2=NOC(c3ccc(Cl)c(F)c3)(C(F)(F)F)C2)ccc1C(=O)NC1CSC1 (stereo not drawn) [Compound A023]
at least 80%: control of Spodoptera littoralis [1] | control of Heliothis virescens [2] | control of Plutella xylostella [3] | control of Diabrotica balteata [4] | control of Thrips tabaci [5] | control of Tetranychus urticae [6]

Cc1cc(C2=NOC(c3cc(F)cc(Cl)c3)(C(F)(F)F)C2)ccc1C(=O)NC1(C)CSC1 (stereo not drawn) [Compound A025]
at least 80%: control of Spodoptera littoralis [1] | control of Heliothis virescens [2] | control of Plutella xylostella [3] | control of Diabrotica balteata [4] | control of Thrips tabaci [5] | control of Tetranychus urticae [6]

Cc1cc(C2=NOC(c3cccc(OC(F)(F)F)c3)(C(F)(F)F)C2)ccc1C(=O)NC1CSC1 (stereo not drawn) [Compound A054]
at least 80%: control of Spodoptera littoralis [1] | control of Heliothis virescens [2] | control of Plutella xylostella [3] | control of Diabrotica balteata [4] | control of Thrips tabaci [5] | control of Tetranychus urticae [6]

Cc1cc(C2=NOC(c3cc(F)cc(Cl)c3)(C(F)(F)F)C2)ccc1C(=O)NC1CS(=O)(=O)C1 (stereo not drawn) [Compound A024]
at least 80%: control of Spodoptera littoralis [1] | control of Heliothis virescens [2] | control of Plutella xylostella [3] | control of Diabrotica balteata [4] | control of Thrips tabaci [5] | control of Tetranychus urticae [6]

Cc1cc(C2=NOC(c3ccc(Cl)cc3)(C(F)(F)F)C2)ccc1C(=O)NC1CS(=O)(=O)C1 (stereo not drawn) [Compound A047]
at least 80%: control of Spodoptera littoralis [1] | control of Heliothis virescens [2] | control of Plutella xylostella [3] | control of Diabrotica balteata [4] | control of Thrips tabaci [5] | control of Tetranychus urticae [6]

Cc1ccc(-c2cc(Cl)cc(C3(C(F)(F)F)CC(c4ccc(C(=O)NC5C[S+]([O-])C5)c(C)c4)=NO3)c2)cc1Cl (stereo not drawn) [Compound A116]
at least 80%: control of Spodoptera littoralis [1] | control of Heliothis virescens [2] | control of Plutella xylostella [3] | control of Diabrotica balteata [4] | control of Thrips tabaci [5] | control of Tetranychus urticae [6]

Cc1cc(C2=NOC(c3cc(Cl)cc(-c4ccnc(Cl)c4)c3)(C(F)(F)F)C2)ccc1C(=O)NC1C[S+]([O-])C1 (stereo not drawn) [Compound A115]
at least 80%: control of Spodoptera littoralis [1] | control of Heliothis virescens [2] | control of Plutella xylostella [3] | control of Diabrotica balteata [4] | control of Thrips tabaci [5] | control of Tetranychus urticae [6]

Cc1cc(C2=NOC(c3cccc(OC(F)(F)F)c3)(C(F)(F)F)C2)ccc1C(=O)NC1C[S+]([O-])C1 (stereo not drawn) [Compound A053]
at least 80%: control of Spodoptera littoralis [1] | control of Heliothis virescens [2] | control of Plutella xylostella [3] | control of Diabrotica balteata [4] | control of Thrips tabaci [5] | control of Tetranychus urticae [6]

Cc1cc(C2=NOC(c3cc(Cl)cc(Cl)c3)(C3CC3)C2)ccc1C(=O)NC1CS(=O)(=O)C1 (stereo not drawn) [Compound A013]
at least 80%: control of Spodoptera littoralis [1] | control of Heliothis virescens [2] | control of Plutella xylostella [3] | control of Diabrotica balteata [4] | control of Thrips tabaci [5] | control of Tetranychus urticae [6]

Cc1cc(C2=NOC(c3ccc(Br)cc3)(C(F)(F)F)C2)ccc1C(=O)NC1(C)CSC1 (stereo not drawn) [Compound A056]
at least 80%: control of Spodoptera littoralis [1] | control of Heliothis virescens [2] | control of Plutella xylostella [3] | control of Diabrotica balteata [4] | control of Thrips tabaci [5] | control of Tetranychus urticae [6]

Cc1cc(C2=NOC(c3ccc(F)c(Cl)c3)(C(F)(F)F)C2)ccc1C(=O)NC1(C)CSC1 (stereo not drawn) [Compound A029]
at least 80%: control of Spodoptera littoralis [1] | control of Heliothis virescens [2] | control of Plutella xylostella [3] | control of Diabrotica balteata [4] | control of Thrips tabaci [5] | control of Tetranychus urticae [6]

Cc1cc(C2=NOC(c3ccc(F)c(Cl)c3)(C(F)(F)F)C2)ccc1C(=O)NC1CSC1 (stereo not drawn) [Compound A031]
at least 80%: control of Spodoptera littoralis [1] | control of Heliothis virescens [2] | control of Plutella xylostella [3] | control of Diabrotica balteata [4] | control of Thrips tabaci [5] | control of Tetranychus urticae [6]

Cc1cc(C2=NOC(c3cc(F)c(F)c(F)c3)(C(F)(F)F)C2)ccc1C(=O)NC1CSC1 (stereo not drawn) [Compound A042]
at least 80%: control of Spodoptera littoralis [1] | control of Heliothis virescens [2] | control of Plutella xylostella [3] | control of Diabrotica balteata [4] | control of Thrips tabaci [5] | control of Tetranychus urticae [6]

Cc1cc(C2=NOC(c3cccc(OC(F)(F)F)c3)(C(F)(F)F)C2)ccc1C(=O)NC1CS(=O)(=O)C1 (stereo not drawn) [Compound A051]
at least 80%: control of Spodoptera littoralis [1] | control of Heliothis virescens [2] | control of Plutella xylostella [3] | control of Diabrotica balteata [4] | control of Thrips tabaci [5] | control of Tetranychus urticae [6]

Cc1cc(C2=NOC(c3cc(Cl)cc(Cl)c3)(C(F)(F)Cl)C2)ccc1C(=O)NC1CSC1 (stereo not drawn) [Compound A191]
at least 80%: control of Spodoptera littoralis [1] | control of Heliothis virescens [2] | control of Plutella xylostella [3] | control of Diabrotica balteata [4] | control of Thrips tabaci [5] | control of Tetranychus urticae [6]

Cc1cc(C2=NOC(c3ccc(Br)cc3)(C(F)(F)F)C2)ccc1C(=O)NC1CSC1 (stereo not drawn) [Compound A057]
at least 80%: control of Spodoptera littoralis [1] | control of Heliothis virescens [2] | control of Plutella xylostella [3] | control of Diabrotica balteata [4] | control of Thrips tabaci [5] | control of Tetranychus urticae [6]

Cc1cc(C2=NOC(c3ccc(Cl)cc3)(C(F)(F)F)C2)ccc1C(=O)NC1C[S+]([O-])C1 (stereo not drawn) [Compound A049]
at least 80%: control of Spodoptera littoralis [1] | control of Heliothis virescens [2] | control of Plutella xylostella [3] | control of Diabrotica balteata [4] | control of Thrips tabaci [5] | control of Tetranychus urticae [6]

Cc1cc(C2=NOC(c3ccc(C(F)(F)F)cc3)(C(F)(F)F)C2)ccc1C(=O)NC1C[S+]([O-])C1 (stereo not drawn) [Compound A034]
at least 80%: control of Spodoptera littoralis [1] | control of Heliothis virescens [2] | control of Plutella xylostella [3] | control of Diabrotica balteata [4] | control of Thrips tabaci [5] | control of Tetranychus urticae [6]
